Data from paper PMC7548010.
No constants are given. Whether binding was seen depends on the method and setting. Binding seen in cells or lysates may run through a third protein. Some entries that bind do so weakly or less than the wild type.

The chains behind the UniProt entries cited, without tags or fusion partners.
UniProt Q14966: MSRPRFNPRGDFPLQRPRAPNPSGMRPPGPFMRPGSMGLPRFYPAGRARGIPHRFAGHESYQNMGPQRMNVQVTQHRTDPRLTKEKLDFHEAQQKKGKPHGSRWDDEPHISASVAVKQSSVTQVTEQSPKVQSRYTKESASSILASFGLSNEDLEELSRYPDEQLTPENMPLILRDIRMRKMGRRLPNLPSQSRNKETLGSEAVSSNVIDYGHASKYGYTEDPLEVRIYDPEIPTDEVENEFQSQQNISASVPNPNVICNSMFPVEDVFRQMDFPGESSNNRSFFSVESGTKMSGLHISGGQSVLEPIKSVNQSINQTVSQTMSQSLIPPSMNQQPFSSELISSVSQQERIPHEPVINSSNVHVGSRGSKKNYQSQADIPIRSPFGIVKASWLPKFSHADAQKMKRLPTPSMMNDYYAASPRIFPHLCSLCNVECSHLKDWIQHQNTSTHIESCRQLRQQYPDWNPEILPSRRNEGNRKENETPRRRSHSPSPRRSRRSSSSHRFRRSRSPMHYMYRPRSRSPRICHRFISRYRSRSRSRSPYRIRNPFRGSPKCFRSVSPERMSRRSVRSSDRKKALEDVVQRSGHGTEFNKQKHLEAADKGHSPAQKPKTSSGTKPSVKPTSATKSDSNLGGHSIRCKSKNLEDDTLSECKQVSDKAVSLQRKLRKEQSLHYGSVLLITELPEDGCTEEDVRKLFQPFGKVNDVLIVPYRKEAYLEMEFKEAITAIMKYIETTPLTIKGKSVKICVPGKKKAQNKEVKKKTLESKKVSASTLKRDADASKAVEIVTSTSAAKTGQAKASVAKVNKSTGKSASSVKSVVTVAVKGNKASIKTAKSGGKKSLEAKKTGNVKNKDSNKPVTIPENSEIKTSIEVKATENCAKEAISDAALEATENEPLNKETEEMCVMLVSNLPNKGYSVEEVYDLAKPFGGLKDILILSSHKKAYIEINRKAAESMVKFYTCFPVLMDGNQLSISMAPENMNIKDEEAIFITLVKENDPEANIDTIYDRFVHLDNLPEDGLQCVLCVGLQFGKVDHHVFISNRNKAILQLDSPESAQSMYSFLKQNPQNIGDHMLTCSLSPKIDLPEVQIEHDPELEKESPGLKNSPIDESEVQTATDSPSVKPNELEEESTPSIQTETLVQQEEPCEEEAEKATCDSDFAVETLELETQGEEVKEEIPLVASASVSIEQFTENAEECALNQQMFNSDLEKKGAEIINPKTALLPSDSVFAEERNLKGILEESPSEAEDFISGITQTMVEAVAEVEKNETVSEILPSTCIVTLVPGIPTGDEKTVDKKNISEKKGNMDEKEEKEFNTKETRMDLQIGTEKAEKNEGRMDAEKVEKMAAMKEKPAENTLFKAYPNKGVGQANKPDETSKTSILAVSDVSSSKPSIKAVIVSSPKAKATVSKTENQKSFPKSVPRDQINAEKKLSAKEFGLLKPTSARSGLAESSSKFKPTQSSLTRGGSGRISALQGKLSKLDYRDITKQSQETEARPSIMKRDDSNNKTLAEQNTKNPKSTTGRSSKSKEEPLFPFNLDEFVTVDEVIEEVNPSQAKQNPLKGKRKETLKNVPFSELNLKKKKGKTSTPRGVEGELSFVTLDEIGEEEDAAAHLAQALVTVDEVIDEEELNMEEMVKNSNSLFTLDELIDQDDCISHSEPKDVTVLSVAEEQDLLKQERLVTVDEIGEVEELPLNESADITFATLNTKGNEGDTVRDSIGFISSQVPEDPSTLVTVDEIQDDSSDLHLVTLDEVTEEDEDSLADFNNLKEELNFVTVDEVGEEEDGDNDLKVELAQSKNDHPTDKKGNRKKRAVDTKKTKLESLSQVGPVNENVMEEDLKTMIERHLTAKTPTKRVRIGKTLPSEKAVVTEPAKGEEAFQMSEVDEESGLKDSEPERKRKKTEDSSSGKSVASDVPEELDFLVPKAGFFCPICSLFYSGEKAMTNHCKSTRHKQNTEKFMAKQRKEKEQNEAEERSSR
UniProt Q93009: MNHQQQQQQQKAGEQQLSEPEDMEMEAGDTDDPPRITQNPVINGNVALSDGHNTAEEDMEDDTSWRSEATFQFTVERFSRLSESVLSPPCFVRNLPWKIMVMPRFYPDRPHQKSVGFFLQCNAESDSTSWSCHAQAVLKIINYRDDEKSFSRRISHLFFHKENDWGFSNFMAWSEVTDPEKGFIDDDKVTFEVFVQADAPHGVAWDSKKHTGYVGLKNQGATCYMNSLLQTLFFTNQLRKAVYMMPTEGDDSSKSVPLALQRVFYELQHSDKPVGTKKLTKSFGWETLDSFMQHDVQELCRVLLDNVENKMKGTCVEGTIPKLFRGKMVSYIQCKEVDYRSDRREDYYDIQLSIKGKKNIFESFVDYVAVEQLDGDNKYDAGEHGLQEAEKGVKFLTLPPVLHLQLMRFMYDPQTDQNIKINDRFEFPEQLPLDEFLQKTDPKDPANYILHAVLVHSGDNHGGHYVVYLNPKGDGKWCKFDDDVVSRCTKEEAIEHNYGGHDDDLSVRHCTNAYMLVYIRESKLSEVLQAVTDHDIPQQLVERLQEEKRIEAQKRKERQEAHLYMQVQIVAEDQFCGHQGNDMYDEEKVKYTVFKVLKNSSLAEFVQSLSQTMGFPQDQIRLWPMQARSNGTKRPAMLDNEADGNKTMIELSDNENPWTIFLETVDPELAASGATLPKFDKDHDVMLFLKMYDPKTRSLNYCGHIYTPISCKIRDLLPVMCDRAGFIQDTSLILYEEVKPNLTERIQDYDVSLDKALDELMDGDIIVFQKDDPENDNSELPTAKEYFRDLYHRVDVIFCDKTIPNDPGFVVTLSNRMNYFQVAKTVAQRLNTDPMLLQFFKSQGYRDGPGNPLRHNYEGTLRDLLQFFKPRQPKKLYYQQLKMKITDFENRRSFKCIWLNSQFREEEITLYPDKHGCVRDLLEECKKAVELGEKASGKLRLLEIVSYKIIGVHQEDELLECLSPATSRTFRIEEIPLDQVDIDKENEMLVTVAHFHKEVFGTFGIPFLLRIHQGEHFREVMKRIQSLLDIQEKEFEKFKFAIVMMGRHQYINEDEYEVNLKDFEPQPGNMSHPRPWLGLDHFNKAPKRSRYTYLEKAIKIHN

Columns and labels:
[1] = biological target: Zinc finger protein 638 (ZNF638) (human (endogenous in SK-Hep1 and Huh-7)) (UniProt Q14966); assay: co-IP; endogenous proteins, SK-Hep1 cells lysed in RIPA lysis buffer with protease inhibitors; immunoprecipitation with primary antibody and protein A/G agarose, immunoblotting
[2] = biological target: Ubiquitin-specific peptidase 7 (USP7) (human (endogenous in SK-Hep1 and Huh-7)) (UniProt Q93009); assay: as above

binding [1]: binds
binding [2]: binds
B1: full-length SREBP1C (sterol regulatory element binding protein) (protein, UniProt P36956-3 1-1047)
chain: MDCTFEDMLQLINNQDSDFPGLFDPPYAGSGAGGTDPASPDTSSPGSLSPPPATLSSSLEAFLSGPQAAPSPLSPPQPAPTPLKMYPSMPAFSPGPGIKEESVPLSILQTPTPQPLPGALLPQSFPAPAPPQFSSTPVLGYPSPPGGFSTGSPPGNTQQPLPGLPLASPPGVPPVSLHTQVQSVVPQQLLTVTAAPTAAPVTTTVTSQIQQVPVLLQPHFIKADSLLLTAMKTDGATVKAAGLSPLVSGTTVQTGPLPTLVSGGTILATVPLVVDAEKLPINRLAAGSKAPASAQSRGEKRTAHNAIEKRYRSSINDKIIELKDLVVGTEAKLNKSAVLRKAIDYIRFLQHSNQKLKQENLSLRTAVHKSKSLKDLVSACGSGGNTDVLMEGVKTEVEDTLTPPPSDAGSPFQSSPLSLGSRGSGSGGSGSDSEPDSPVFEDSKAKPEQRPSLHSRGMLDRSRLALCTLVFLCLSCNPLASLLGARGLPSPSDTTSVYHSPGRNVLGTESRDGPGWAQWLLPPVVWLLNGLLVLVSLVLLFVYGEPVTRPHSGPAVYFWRHRKQADLDLARGDFAQAAQQLWLALRALGRPLPTSHLDLACSLLWNLIRHLLQRLWVGRWLAGRAGGLQQDCALRVDASASARDAALVYHKLHQLHTMGKHTGGHLTATNLALSALNLAECAGDAVSVATLAEIYVAAALRVKTSLPRALHFLTRFFLSSARQACLAQSGSVPPAMQWLCHPVGHRFFVDGDWSVLSTPWESLYSLAGNPVDPLAQVTQLFREHLLERALNCVTQPNPSPGSADGDKEFSDALGYLQLLNSCSDAAGAPAYSFSISSSMATTTGVDPVAKWWASLTAVVIHWLRRDEEAAERLCPLVEHLPRVLQESERPLPRAALHSFKAARALLGCAKAESGPASLTICEKASGYLQDSLATTPASSSIDKAVQLFLCDLLLVVRTSLWRQQQPPAPAPAAQGTSSRPQASALELRGFQRDLSSLRRLAQSFRPAMRRLMDVLTSESAWALPQHLGKGFPSPSGHKVPGWHGRMD
